Experimental data: PubChem BioAssay AID504793 (Drosophila RNAi Screening Center, 2011)
In all, the deposit lists about 23,000 reagents; below is an unselected part of those with a known target gene and a result. Over the whole deposit, 62 (0.27%) are marked active. 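Calls come from follow-up tests whose scores are not deposited, so confirmed genes may have low counts here; counts are not normalised per plate.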 The raw values are shown without normalisation. The numbers tell different reagents against one gene apart. A plus sign joins genes that one reagent is predicted to hit.

- Aim: 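Genes required for cells to halt at G2/M after double-strand DNA breaks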 (primary screen)
- System: Drosophila S2R+ cells
- Reagent: long dsRNA against Drosophila genes, about 0.25 µg dsRNA per well
- Timing: 4 days of dsRNA, then 4 hours of drug before read-out
- Conditions: doxorubicin 0.5 µM for 4 hours to cause double-strand breaks, in cells also given a low, harmless dose of dsRNA against nbs to sensitise the assay
- Measurement: 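Mitotic index as the number of phospho-histone H3-positive cells in each well following doxorubicin, given as raw counts without normalisation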
- Scale: mitotic cells: higher = more cells in mitosis, weaker G2 arrest
- Active means: 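Genes are called active only when high mitotic counts were reproduced with independent dsRNAs and mitosis was checked for delay without damage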
- Meaning of the calls: active = confirmed in follow-up tests; inactive = not confirmed

| Target gene | reagent | mitotic cells, replicate 1 | activity call |
| --- | --- | --- | --- |
| CG6769 | 1 | 9 | inactive |
| CG3587 | 1 | 10 | inactive |
| CG3587 | 2 | 13 | inactive |
| RpS23 (Ribosomal protein S23) | 1 | 7 | inactive |
| RpS23 (Ribosomal protein S23) | 2 | 5 | inactive |
| tgy (twiggy) | 1 | 3 | inactive |
| Prp3 (Precursor RNA processing 3) | 1 | 3 | inactive |
| Mtr4 (Mtr4 helicase) | 1 | 13 | inactive |
| Tango10 (Transport and Golgi organization 10) | 1 | 6 | inactive |
| Tango10 (Transport and Golgi organization 10) | 2 | 13 | inactive |
| CG7194 | 1 | 4 | inactive |
| Acp65Aa (Adult cuticle protein 65Aa) | 1 | 5 | inactive |
| Acp65Aa (Adult cuticle protein 65Aa) | 2 | 4 | inactive |
| BomS2 (Bomanin Short 2) | 1 | 11 | inactive |
| CG13884 | 1 | 5 | inactive |
| CG18131 | 1 | 15 | inactive |
| Cad86C (Cadherin 86C) | 1 | 7 | inactive |
| Cad86C (Cadherin 86C) | 2 | 12 | inactive |
| Cad86C (Cadherin 86C) | 3 | 3 | inactive |
| Cad86C (Cadherin 86C) | 4 | 11 | inactive |
| hiw (highwire) | 1 | 9 | inactive |
| hiw (highwire) | 2 | 7 | inactive |
| hiw (highwire) | 3 | 6 | inactive |
| Abcd3 (ATP binding cassette subfamily D member 3) | 1 | 9 | inactive |
| Abcd3 (ATP binding cassette subfamily D member 3) | 2 | 5 | inactive |
| Amacr (Alpha-methylacyl-CoA racemase) | 1 | 5 | inactive |
| T3dh + pgc | 1 | 9 | inactive |
| CG5665 | 1 | 6 | inactive |
| Octbeta2R (Octopamine beta2 receptor) | 1 | 2 | inactive |
| Octbeta2R (Octopamine beta2 receptor) | 2 | 5 | inactive |
| Octbeta2R (Octopamine beta2 receptor) | 3 | 14 | inactive |
| Octbeta2R (Octopamine beta2 receptor) | 4 | 7 | inactive |
| Cyp28a5 (Cytochrome P450 28a5) | 1 | 9 | inactive |
| Nadk1a (NAD kinase 1a) | 1 | 17 | inactive |
| Nadk1a (NAD kinase 1a) | 2 | 5 | inactive |
| CG17187 | 1 | 4 | inactive |
| CG17187 | 2 | 4 | inactive |
| CG42749 | 1 | 10 | inactive |
| CG42749 | 2 | 8 | inactive |
| CG42749 | 3 | 3 | inactive |
| CG18327 | 1 | 5 | inactive |
| CG18327 | 2 | 11 | inactive |
| CG33229 | 1 | 21 | inactive |
| CG33229 | 2 | 3 | inactive |
| TTLL3B (Tubulin tyrosine ligase-like 3B) | 1 | 1 | inactive |
| Cad74A (Cadherin 74A) | 1 | 9 | inactive |
| botv | 1 | 3 | inactive |
| botv | 2 | 4 | inactive |
| NaCP60E (Na channel protein 60E) | 1 | 4 | inactive |
| NaCP60E (Na channel protein 60E) | 2 | 14 | inactive |
| NaCP60E (Na channel protein 60E) | 3 | 5 | inactive |
| CG4477 | 1 | 7 | inactive |
| CHMP2B (Charged multivesicular body protein 2b) | 1 | 3 | inactive |
| CHMP2B (Charged multivesicular body protein 2b) | 2 | 6 | inactive |
| CG7083 | 1 | 4 | inactive |
| CG7083 | 2 | 5 | inactive |
| CG8929 | 1 | 5 | inactive |
| CG8929 | 2 | 10 | inactive |
| His2B:CG33870 + His2B:CG33868 + His2B:CG33882 + 21 more | 1 | 11 | inactive |
| CG8492 | 1 | 9 | inactive |
| CG8492 | 2 | 23 | inactive |
| CG31473 | 1 | – | inactive |
| CG31473 | 2 | 3 | inactive |
| Ask1 (Apoptotic signal-regulating kinase 1) | 1 | 7 | inactive |
| Ask1 (Apoptotic signal-regulating kinase 1) | 2 | 9 | inactive |
| ng3 (new glue 3) | 1 | 21 | inactive |
| ng3 (new glue 3) | 2 | 14 | inactive |
| CG1407 | 1 | 2 | inactive |
| dpr8 (defective proboscis extension response 8) | 1 | 16 | inactive |
| dpr8 (defective proboscis extension response 8) | 2 | 7 | inactive |
| dpr8 (defective proboscis extension response 8) | 3 | 11 | inactive |
| dpr8 (defective proboscis extension response 8) | 4 | 14 | inactive |
| dj-1beta | 1 | 9 | inactive |
| dj-1beta | 2 | 5 | inactive |
| fs(1)Yb (female sterile (1) Yb) | 1 | 14 | inactive |
| CG3009 | 1 | 5 | inactive |
| CG3009 | 2 | 2 | inactive |
| CG11504 | 1 | 3 | inactive |
| Poxn (Pox neuro) | 1 | 11 | inactive |
| Poxn (Pox neuro) | 2 | 6 | inactive |
| Poxn (Pox neuro) | 3 | 7 | inactive |
| CG7137 | 1 | 12 | inactive |
| CG18528 | 1 | 13 | inactive |
| CG33288 | 1 | 13 | inactive |
| Nepl12 (Neprilysin-like 12) | 1 | 8 | inactive |
| CG9536 | 1 | 3 | inactive |
| CG9536 | 2 | 6 | inactive |
| CG14683 | 1 | 5 | inactive |
| CG11384 | 1 | 5 | inactive |
| CG18266 | 1 | 7 | inactive |
| laf (labial associated factor) | 1 | 12 | inactive |
| Nle (Notchless) | 1 | 2 | inactive |
| CG9921 | 1 | 13 | inactive |
| cpo (couch potato) | 1 | 8 | inactive |
| CG30429 | 1 | 6 | inactive |
| CG34417 | 1 | 5 | inactive |
| CG34417 | 2 | 2 | inactive |
| CG34417 | 3 | 8 | inactive |
| mthl3 + mthl4 | 1 | 4 | inactive |
| Mal-A5 (Maltase A5) | 1 | 5 | inactive |
| Mal-A5 (Maltase A5) | 2 | 8 | inactive |
| CG16922 (retired record) | 1 | 12 | inactive |
| CG16922 (retired record) | 2 | 4 | inactive |
| Su(P) (Suppressor of ref(2)P sterility) | 1 | 3 | inactive |
| Su(P) (Suppressor of ref(2)P sterility) | 2 | 8 | inactive |
| CG13743 | 1 | 10 | inactive |
| CG13743 | 2 | 1 | inactive |
| CkIIalpha-i1 (CKII-alpha subunit interactor-1) | 1 | 4 | inactive |
| CG9062 | 1 | 8 | inactive |
| CG9062 | 2 | 10 | inactive |
